Results deposited as PubChem BioAssay AID1671195 (Yale University, 2021)
Aim: 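Genes whose knockdown alters LDL uptake in liver cancer cells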 (primary screen). Cell system: human Huh7 hepatoma cells. Knock-down reagent: siRNA pool against human genes, 18 nM. Duration: about 2 to 2.5 days of knockdown, then 8 h LDL uptake. Treatment: DiI-labelled LDL at 30 µg/ml for 8 h, in lipoprotein-deficient serum medium. Read-out: 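Per-cell DiI-LDL intensity by automated imaging; well means scaled to the plate median and given as a robust z-score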. Reading the numbers: robust z-score: higher = more LDL uptake after knockdown. Hit rule: 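Active when two or more replicates show a robust z-score above 2 or below -2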.
Shown is an unselected part of about 22,000 reagents. About 1,510 of all reagents (6.9%) count as active. 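Active includes knockdowns raising or lowering LDL uptake; positive z-scores mean more uptake, negative mean less.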 No sequences are given here.

For IL17RB (interleukin 17 receptor B), the values are robust z-score, replicate 1 = -6.11; robust z-score, replicate 2 = -6.6; robust z-score, replicate 3 = -0.29; inactive.
Against WASHC2A (WASH complex subunit 2A) the deposit lists robust z-score, replicate 1 = -0.783; robust z-score, replicate 2 = -1.11; robust z-score, replicate 3 = -0.451; inactive.
Against DYNLT1 (dynein light chain Tctex-type 1), the values are robust z-score, replicate 1 = -2.25; robust z-score, replicate 2 = -0.635; robust z-score, replicate 3 = -0.18; inactive.
For PLCL1 (phospholipase C like 1 (inactive)), the entry reads robust z-score, replicate 1 = -0.118; robust z-score, replicate 2 = 0.559; robust z-score, replicate 3 = 0.301; inactive.
CACNA1H (calcium voltage-gated channel subunit alpha1 H) showed robust z-score, replicate 1 = -0.368; robust z-score, replicate 2 = 0.0512; robust z-score, replicate 3 = -0.614; inactive.
Knock-down of COX6B1 (cytochrome c oxidase subunit 6B1) resulted in: robust z-score, replicate 1 = -0.782; robust z-score, replicate 2 = -0.88; robust z-score, replicate 3 = -1.07; inactive.
For GPANK1 (G-patch domain and ankyrin repeats 1), the values are robust z-score, replicate 1 = -0.186; robust z-score, replicate 2 = -1.44; robust z-score, replicate 3 = 0.173; inactive.
CLDN14 (claudin 14) gave robust z-score, replicate 1 = -0.726; robust z-score, replicate 2 = -0.862; robust z-score, replicate 3 = -1.12; inactive.
With knock-down of FTSJ1 (FtsJ RNA 2'-O-methyltransferase 1) the results were robust z-score, replicate 1 = -2.99; robust z-score, replicate 2 = -3.11; robust z-score, replicate 3 = -3.17; active.
LYLDT1 (lysosomal-lipid droplet tether 1) showed robust z-score, replicate 1 = 0.644; robust z-score, replicate 2 = 0.14; robust z-score, replicate 3 = -0.376; inactive.
Against EVA1C (eva-1 homolog C) the deposit lists robust z-score, replicate 1 = -0.962; robust z-score, replicate 2 = -0.451; robust z-score, replicate 3 = -0.752; inactive.
Depletion of FAM184A (family with sequence similarity 184 member A) resulted in: robust z-score, replicate 1 = -0.815; robust z-score, replicate 2 = 0.453; robust z-score, replicate 3 = 0.246; inactive.
With knock-down of SCUBE2 (signal peptide, CUB domain and EGF like domain containing 2) the results were robust z-score, replicate 1 = -0.519; robust z-score, replicate 2 = -0.313; robust z-score, replicate 3 = -0.466; inactive.
With knock-down of DYNC1LI2 (dynein cytoplasmic 1 light intermediate chain 2) the results were robust z-score, replicate 1 = 1.08; robust z-score, replicate 2 = 1.7; robust z-score, replicate 3 = 1.38; inactive.
For SEC63 (SEC63 protein translocation regulator) the deposit lists robust z-score, replicate 1 = -0.312; robust z-score, replicate 2 = 0.164; robust z-score, replicate 3 = -0.156; inactive.
Depletion of GFM1 (G elongation factor mitochondrial 1) gave: robust z-score, replicate 1 = 0.545; robust z-score, replicate 2 = 0.894; robust z-score, replicate 3 = 0.453; inactive.

Individual results from the list:
Result of GPANK1 (G-patch domain and ankyrin repeats 1) in “robust z-score, replicate 1”: -0.186
Under “robust z-score, replicate 1”, CLDN14 (claudin 14) is entered as -0.726
FAM184A (family with sequence similarity 184 member A), outcome → inactive
